Measurements from article PMC5732324.

Molecular target: GST-HSP90 N-domain
Test: pull-down; GST-PDPK1 domains or GST-HSP90 domains from bacterial lysates on glutathione-Sepharose 4B beads, incubated with cell lysates containing LRRC4; eluted and run on a gel; only the target purified

B1: Leucine-rich repeat (LRR) C4 protein (protein, UniProt Q9HBW1 39-653)
chain: ASAGPQNCPSVCSCSNQFSKVVCTRRGLSEVPQGIPSNTRYLNLMENNIQMIQADTFRHLHHLEVLQLGRNSIRQIEVGAFNGLASLNTLELFDNWLTVIPSGAFEYLSKLRELWLRNNPIESIPSYAFNRVPSLMRLDLGELKKLEYISEGAFEGLFNLKYLNLGMCNIKDMPNLTPLVGLEELEMSGNHFPEIRPGSFHGLSSLKKLWVMNSQVSLIERNAFDGLASLVELNLAHNNLSSLPHDLFTPLRYLVELHLHHNPWNCDCDILWLAWWLREYIPTNSTCCGRCHAPMHMRGRYLVEVDQASFQCSAPFIMDAPRDLNISEGRMAELKCRTPPMSSVKWLLPNGTVLSHASRHPRISVLNDGTLNFSHVLLSDTGVYTCMVTNVAGNSNASAYLNVSTAELNTSNYSFFTTVTVETTEISPEDTTRKYKPVPTTSTGYQPAYTTSTTVLIQTTRVPKQVAVPATDTTDKMQTSLDEVMKTTKIIIGCFVAVTLLAAAMLIVFYKLRKRHQQRSTVTAARTVEIIQVDEDIPAATSAAATAAPSGVSGEGAVVLPTIHDHINYNTYKPAHGAHWTENSLGNSLHPTVTTISEPYIIQTHTKDKVQETQI
How did the binding turn out when B1 was run?
Its binding is “binds”.

No constants are given. Whether binding was seen depends on the method and setting. Binding seen in cells or lysates may run through a third protein. A result given as binding can be weak or reduced; the word gives no strength.
